Results as given in PubChem BioAssay AID330 (DTP/NCI, 2004).
The list shows only some results of the screen, not a fair sample: it is rich in T/C values a quarter to a half above the control, in often repeated tests (any T/C) and in doses without a T/C. Further doses and runs are listed elsewhere. T/C gives the treated animals as a percentage of the vehicle group. Some doses have a count of surviving animals in place of a T/C: the source holds a T/C of zero for them, seemingly a mark for toxic or unscored doses. Some doses without a T/C left all or most animals alive at the check, yet need not have been tolerated: survival well below the control is almost never listed, so the zero probably covers shortened survival too. Survivors were counted at the toxicity check, usually on the fifth day, unless a day is given; later deaths do not show. Schedule codes are those of the source, read here as Q, the interval in days (D) or hours (H), X, the number of doses. Some entries were tested several times; the results are listed from low to high. For survival time, this PubChem deposit counts one and a half times the control or more as active, and values a quarter to a half above the control carry no call in these data; other NCI protocols may use other cut-offs. Some T/C values carry the count of animals alive at the toxicity check (mostly the fifth day); without a count, all were alive then.

System: P388 leukemia ip, CD2F1 mice, survival T/C
Experiment: NCI In Vivo Anticancer Drug Screen. Data for tumor model P388 Leukemia (intraperitoneal) in CD2F1 (CDF1) mice
Conditions: T/C endpoint: median survival time, higher T/C = longer survival
[1] = dose: 100.0 mg/kg/injection, schedule: Q04DX003 (ip), vehicle: saline
[2] = dose: 200.0 mg/kg/injection, schedule: Q04DX003 (ip), vehicle: saline
[3] = dose: 400.0 mg/kg/injection, schedule: Q04DX003 (ip), vehicle: saline
[4] = dose: 400.0 mg/kg/injection, schedule: Q04DX003 (ip), vehicle: saline with Tween-80
[5] = dose: 120.0 mg/kg/injection, schedule: Q01DX005 (ip), vehicle: saline with Tween-80
[6] = dose: 240.0 mg/kg/injection, schedule: Q01DX005 (ip), vehicle: saline with Tween-80
[7] = dose: 50.0 mg/kg/injection, schedule: Q01DX009 (ip), vehicle: saline with Tween-80
[8] = dose: 100.0 mg/kg/injection, schedule: Q01DX009 (ip), vehicle: saline with Tween-80
[9] = dose: 200.0 mg/kg/injection, schedule: Q01DX009 (ip), vehicle: saline with Tween-80
[10] = dose: 30.0 mg/kg/injection, schedule: Q01DX005 (ip), vehicle: saline with Tween-80
[11] = dose: 60.0 mg/kg/injection, schedule: Q01DX005 (ip), vehicle: saline with Tween-80

CN1CCN=C1c1ccc(NC(=O)c2ccc(C(=O)Nc3ccc(C4=NCCN4C)cc3)c(N)c2)cc1
T/C (dose: 2.0 mg/kg/injection, schedule: Q01DX009 (ip), vehicle: saline): 133 % of control | survivor count (dose: 5.0 mg/kg/injection, schedule: Q01DX009 (ip), vehicle: saline): 0 of 6 | survivor count (dose: 10.0 mg/kg/injection, schedule: Q01DX009 (ip), vehicle: saline): 2 of 6 | survivor count (dose: 20.0 mg/kg/injection, schedule: Q01DX009 (ip), vehicle: saline): 0 of 6 | survivor count [1]: 0 of 6 | survivor count [2]: 0 of 6 | survivor count [3]: 0 of 6

COC(=O)c1c(OC)cc2cc3c(c(O)c2c1C)C(=O)C1(O)C(=O)C=C(OC)C(OC(=O)CC(C)N)=C1C3=O (stereo not given)
survivor count (dose: 200.0 mg/kg/injection, schedule: Q01DX005 (ip), vehicle: water): 1 of 6

c1ccc(C2(c3ccccc3)CN3CCSC3=N2)cc1
survivor count [4]: 1 of 6

COC1=CC(=N/Br)/C=CC/1=N/Br
T/C (dose: 50.0 mg/kg/injection, schedule: Q01DX005 (ip), vehicle: saline): 126 % of control | survivor count (dose: 400.0 mg/kg/injection, schedule: Q01DX005 (ip), vehicle: saline): 3 of 6 and 4 of 5

COC(=O)C1CC=C(c2ccccc2)CNC1 (stereo not given)
survivor count (dose: 400.0 mg/kg/injection, schedule: Q01DX001 (ip), vehicle: saline with Tween-80): 0 of 6

O=[N+]([O-])c1ccc2nccc(Cl)c2c1
survivor count (dose: 50.0 mg/kg/injection, schedule: Q01DX009 (ip), vehicle: Klucel (hydroxypropylcellulose) (HPC)): 3 of 6

C=CC(=NC(C)(C)C)Nc1cccc(Cl)c1
survivor count (dose: 100.0 mg/kg/injection, schedule: Q04DX003 (ip), vehicle: saline with Tween-80): 0 of 6 | survivor count (dose: 200.0 mg/kg/injection, schedule: Q04DX003 (ip), vehicle: saline with Tween-80): 0 of 6 | survivor count [4]: 0 of 6

C/C(=N\N=C(/[Se])N1CCC1)c1ccccn1
survivor count (dose: 50.0 mg/kg/injection, schedule: Q04DX003 (ip), vehicle: Klucel (hydroxypropylcellulose) (HPC)): 6 of 6 | survivor count (dose: 100.0 mg/kg/injection, schedule: Q04DX003 (ip), vehicle: Klucel (hydroxypropylcellulose) (HPC)): 0 of 6 | survivor count (dose: 200.0 mg/kg/injection, schedule: Q04DX003 (ip), vehicle: Klucel (hydroxypropylcellulose) (HPC)): 0 of 6 | survivor count (dose: 400.0 mg/kg/injection, schedule: Q04DX003 (ip), vehicle: Klucel (hydroxypropylcellulose) (HPC)): 0 of 6

COC(=O)C1CCCCC1C(=O)OC (stereo not given)
T/C (dose: 50.0 mg/kg/injection, schedule: Q01DX009 (ip), vehicle: saline): 135 % of control

CC1=C(C#N)C(=O)OC1(C)C1CCCC(=O)C1 (stereo not given)
survivor count [5]: 3 of 6 | survivor count [6]: 3 of 6

c1ccc([As](c2ccccc2)c2cccc[c]2[Bi]([c]2ccccc2)[c]2ccccc2)cc1
survivor count [7]: 6 of 6 | survivor count [8]: 3 of 6 | survivor count [9]: 1 of 6

CNC(=O)n1c(N)nc(-c2ccccc2)c1-c1ccccc1
T/C (dose: 12.5 mg/kg/injection, schedule: Q04DX002 (ip), vehicle: saline with Tween-80): 125 % of control | T/C (dose: 25.0 mg/kg/injection, schedule: Q04DX002 (ip), vehicle: saline with Tween-80): 131 % of control | T/C (dose: 50.0 mg/kg/injection, schedule: Q04DX002 (ip), vehicle: saline with Tween-80): 132 % of control [5 of 6 alive] | survivor count (dose: 100.0 mg/kg/injection, schedule: Q04DX002 (ip), vehicle: saline with Tween-80): 2 of 6

Cc1cc2nc3cc(C)c(N)cc3[n+](-c3ccccc3)c2cc1N
survivor count (dose: 25.0 mg/kg/injection, schedule: Q01DX005 (ip), vehicle: Klucel (hydroxypropylcellulose) (HPC)): 4 of 6 | survivor count (dose: 50.0 mg/kg/injection, schedule: Q01DX005 (ip), vehicle: Klucel (hydroxypropylcellulose) (HPC)): 0 of 6 | survivor count (dose: 100.0 mg/kg/injection, schedule: Q01DX005 (ip), vehicle: Klucel (hydroxypropylcellulose) (HPC)): 0 of 6 | survivor count (dose: 200.0 mg/kg/injection, schedule: Q01DX005 (ip), vehicle: Klucel (hydroxypropylcellulose) (HPC)): 0 of 6

O=C1C2C3CCC(O3)C2C(=O)N1CC#CCCl (stereo not given)
survivor count [10]: 0 of 6 | survivor count [11]: 0 of 6 | survivor count [5]: 0 of 6 | survivor count [6]: 0 of 6

C[O][Sn]([O][Sn]([Cl])([c]1ccccc1)[c]1ccccc1)([c]1ccccc1)[c]1ccccc1
survivor count [1]: 1 of 6 | survivor count [2]: 0 of 6 | T/C (dose: 200.0 mg/kg/injection, schedule: Q04DX003 (ip), vehicle: suspension in saline): 131 % of control | survivor count [3]: 0 of 6 | T/C (dose: 400.0 mg/kg/injection, schedule: Q04DX003 (ip), vehicle: suspension in saline): 134 % of control

CCC1CC(O)c2c(O)c3c(c(O)c2C1O)C(=O)c1cccc(O)c1C3=O (stereo not given) (tested in a mixture with another compound)
survivor count (dose: 0.25 mg/kg/injection, schedule: Q01DX009 (ip), vehicle: other): 6 of 6 | survivor count (dose: 0.5 mg/kg/injection, schedule: Q01DX009 (ip), vehicle: other): 4 of 6 | survivor count (dose: 0.5 mg/kg/injection, schedule: Q04DX003 (ip), vehicle: other): 6 of 6 | survivor count (dose: 1.0 mg/kg/injection, schedule: Q01DX009 (ip), vehicle: other): 6 of 6 | survivor count (dose: 1.0 mg/kg/injection, schedule: Q04DX003 (ip), vehicle: other): 6 of 6 | survivor count (dose: 2.0 mg/kg/injection, schedule: Q01DX009 (ip), vehicle: other): 0 of 6 | survivor count (dose: 2.0 mg/kg/injection, schedule: Q04DX003 (ip), vehicle: other): 3 of 6 | survivor count (dose: 4.0 mg/kg/injection, schedule: Q01DX009 (ip), vehicle: other): 0 of 6 | survivor count (dose: 4.0 mg/kg/injection, schedule: Q04DX003 (ip), vehicle: other): 0 of 6 | survivor count (dose: 250.0 micrograms/kg/injection, schedule: Q01DX009 (ip), vehicle: other): 6 of 6 | survivor count (dose: 500.0 micrograms/kg/injection, schedule: Q01DX009 (ip), vehicle: other): 6 of 6

Cc1ccc(O)c(C(NCCO)c2ccccc2)c1 (stereo not given)
survivor count (dose: 200.0 mg/kg/injection, schedule: Q04DX002 (ip), vehicle: saline): 1 of 6 | survivor count (dose: 400.0 mg/kg/injection, schedule: Q04DX002 (ip), vehicle: saline): 0 of 6

O=C1Nc2ccccc2C1(N1CCCCC1)N1CCCCC1
survivor count [8]: 6 of 6

O=C(NCCCl)Nc1ccn(C(=O)NCCCl)c(=O)n1
survivor count (dose: 200.0 mg/kg/injection, schedule: Q01DX005 (ip), vehicle: saline with Tween-80): 2 of 6

C=C1C(=O)OC2C1C(OC(=O)/C(C)=C\C)CC(C)=C1C(=O)C3OC3(C)C12O (stereo not given)
survivor count (dose: 100.0 mg/kg/injection, schedule: Q01DX005 (ip), vehicle: saline + alcohol): 0 of 6

Cc1cc(N2C(=O)CSC2=S)c([N+](=O)[O-])cc1C
survivor count (dose: 200.0 mg/kg/injection, schedule: Q01DX009 (ip), vehicle: suspension in saline): 6 of 6

CC12C(=O)OC(=O)C1(C)C1CCC2O1 (stereo not given)
survivor count (dose: 3.75 mg/kg/injection, schedule: Q01DX005 (ip), vehicle: saline with Tween-80): 1 of 6 | survivor count (dose: 7.5 mg/kg/injection, schedule: Q01DX005 (ip), vehicle: saline with Tween-80): 0 of 6 | survivor count (dose: 15.0 mg/kg/injection, schedule: Q01DX005 (ip), vehicle: saline with Tween-80): 0 of 6 | survivor count [10]: 0 of 6 | survivor count [11]: 0 of 6 | survivor count [5]: 0 of 6 | survivor count [6]: 0 of 6

FC(F)(F)SN1CN(SC(F)(F)F)CN(SC(F)(F)F)CN(SC(F)(F)F)CN(SC(F)(F)F)C1
survivor count (dose: 240.0 mg/kg/injection, schedule: Q01DX005 (ip), vehicle: saline): 5 of 6

CCCCC1C=CC2C(N1)N2C#N (stereo not given)
survivor count [7]: 6 of 6 | survivor count [9]: 0 of 6
